Reference: publication PMC8779298, “The Campylobacter jejuni Response Regulator and Cyclic-Di-GMP Binding CbrR Is a Novel Regulator of Flagellar Motility” (Microorganisms, 2021)

Test system: T1, CbrR
T1 construct: gene CJJ81176_0671
Conditions: labelled compound (32P), 10 mM Tris pH 8.0, 5 mM MgCl2, 100 mM NaCl

Nc1nc2c(ncn2[C@@H]2O[C@H](COP(=O)(O)OP(=O)(O)OP(=O)(O)O)[C@@H](O)[C@H]2O)c(=O)[nH]1 [GTP]
DRaCALA, nitrocellulose spot; competition with unlabelled nucleotides: this assay indicated efficient binding of both GTP and c-di-GMP

Nc1nc2c(ncn2[C@@H]2O[C@@H]3COP(=O)(O)O[C@H]4[C@@H](O)[C@H](n5cnc6c(=O)[nH]c(N)nc65)O[C@@H]4COP(=O)(O)O[C@H]3[C@H]2O)c(=O)[nH]1 [c-di-GMP]
DRaCALA, nitrocellulose spot; competition with unlabelled nucleotides (I-site): this assay indicated efficient binding of both GTP and c-di-GMP

Where two headings read alike, the source gives them in different places.
